Test results reported in PubChem BioAssay AID590 (National Center for Advancing Translational Sciences (NCATS), 2007).
Hit rate of the full screen: of about 59,000 compounds, about 6,500 (11%) were called active. The inconclusive results got no clear call from the source; some entries with a clear call stand among them for comparison. No stated cut-off is given here; in the data, active means max dye-equivalent concentration above about 10 nM; inconclusive means mostly about 1.1 nM to 9.6 nM; inactive means weaker than that.

Experiment: qHTS Assay for Spectroscopic Profiling in A350 Spectral Region
Details: Compound autofluorescence, 340/450 nm, Alexa 350 dye-equivalents; hits give high values

Row | Structure (SMILES) | max dye-equivalent concentration
1 | CC(C)C(c1nnnn1Cc1ccccc1)N1CCc2ccccc2C1 (stereo not given) | inconclusive: 6.4 nM
2 | Cc1cc(C)n2c3c(c(C#N)c2n1)CCCC3 | active: 86 nM
3 | O=C1c2ccccc2C(=O)N1CCc1nc(-c2ccccn2)no1 | active: 140 nM
4 | CCOCCn1c(=O)c2c(nc3n2CCN3c2ccc(CC)cc2)n(C)c1=O | inactive
5 | COc1ccc(Cc2nnc(SCC(=O)c3ccccc3)o2)cc1 | inconclusive: 1.3 nM
6 | O=c1c(-c2ccccc2)nc2cnc(Oc3ccccc3)nc2n1C1CC1 | inactive
7 | CC1CCCN(C(=O)Cn2nnc(-c3cccnc3)n2)C1 (stereo not given) | inactive
8 | CCOC(=O)c1ccccc1NS(=O)(=O)c1ccccc1 | inconclusive: 1.5 nM
9 | COc1ccc(-c2nnn(CC(=O)c3ccccc3)n2)cc1OC | inactive
10 | CCCn1c(N2CCN(CC(=O)Nc3ccc4c(c3)OCCO4)CC2)nc2ccccc21 | inconclusive: 1.3 nM
11 | CCOc1ncccc1C(=O)OCCN1C(=O)c2ccccc2C1=O | inconclusive: 2.6 nM
12 | O=S(=O)(c1ccccc1)c1nc(-c2ccccc2)oc1NCc1cccnc1 | inactive
13 | COC(=O)c1ccc(-c2nc3ccccc3o2)cc1 | inconclusive: 3.8 nM
14 | Brc1cccc(-c2cnc3n2CCCCC3)c1 | inconclusive: 5.8 nM
15 | CCOC(=O)CSC1=C(C#N)C(c2ccccc2F)C(C(C)=O)=C(C)N1 (stereo not given) | inconclusive: 7.9 nM
16 | COc1ccc(C)cc1NC(=O)C1CC(=O)OC12CCCCC2 (stereo not given) | inactive
17 | CCn1c(SCC(=O)Nc2ccc3c(c2)OCO3)nc2c1c(=O)n(C)c(=O)n2C | inactive
18 | CSCC[C@H](NC(=O)NCc1ccccc1F)C(=O)O | inconclusive: 9 nM
19 | O=C(NCCCN1CCOCC1)c1cc2cc(Br)ccc2oc1=O | inconclusive: 3.6 nM
20 | O=C(CSc1nnc(-c2ccncc2)o1)Oc1ccccc1 | inconclusive: 7.1 nM
21 | COc1ccc2[nH]cc(CCNc3ccnc(-c4ccoc4)n3)c2c1 | inactive
22 | CCOC(=O)c1[nH]c2ccc(Br)cc2c1NC(=O)CCN1CCN(C(=O)OCC)CC1 | inactive
23 | CCc1ccc(NC(=O)CSc2nnc(-c3ccccn3)n2C)cc1 | inconclusive: 1.4 nM
24 | Cc1ccc(N2CCN(C(=O)C3CCN(S(=O)(=O)c4cccc5nsnc45)CC3)CC2C)cc1 (stereo not given) | inactive

Structures shown so far with a cyano group:
Row | Structure (SMILES) | max dye-equivalent concentration
2 | Cc1cc(C)n2c3c(c(C#N)c2n1)CCCC3 | active: 86 nM
15 | CCOC(=O)CSC1=C(C#N)C(c2ccccc2F)C(C(C)=O)=C(C)N1 (stereo not given) | inconclusive: 7.9 nM

Additional structures.

Row | Structure (SMILES) | max dye-equivalent concentration
25 | Cc1ccc2[nH]c(=O)c(CN(CCN3CCOCC3)C(=O)Nc3ccccc3F)cc2c1 | inconclusive: 1.6 nM
26 | OCCCNCc1ccccn1 | inactive
27 | COc1ccc(N2CCCn3c2nc2c3c(=O)n(Cc3ccccc3F)c(=O)n2C)cc1 | inconclusive: 1.5 nM
28 | CC1=C(C(N)=O)C(c2ccccn2)n2nc(SCc3ccccc3)nc2N1 (stereo not given) | inconclusive: 1.6 nM
29 | O=C(CN(C(=O)CNS(=O)(=O)c1ccccc1)c1ccc2c(c1)OCCO2)NC1CCCCC1 | inactive
30 | O=C(CSc1ncnc2c1oc1ccccc12)N1CCc2ccccc2C1 | inactive
31 | N#Cc1ccc(CN2CC[C@@]3(CCCN(C(=O)c4cc(C(F)(F)F)cc(C(F)(F)F)c4)C3)C2)cc1 | inactive
32 | COC(=O)CSc1nc2ccccc2n1CC(=O)N(C(C)C)C(C)C | inactive
33 | Fc1ccc(-c2cc3nc(-c4ccccc4)cc(N4CCN(CCN5CCOCC5)CC4)n3n2)cc1 | active: 350 nM
34 | Cc1noc(C)c1C(=O)N1CCC2(CCCN(C(=O)Nc3cccc(C#N)c3)C2)CC1 | inactive
35 | Clc1ccccc1-c1nc(-n2ccnc2)c2ccccc2n1 | inactive
36 | CCCC(=O)N1CCc2[nH]c3ccccc3c2C1 | inconclusive: 7.8 nM
37 | Cc1nc2cc3nc(C)sc3cc2s1 | inconclusive: 1.5 nM
38 | N#Cc1nc(-c2ccccc2)oc1NCCN1CCCCC1 | inconclusive: 7.1 nM
39 | O=C(NCCN1CCN(c2ccccc2F)CC1)c1cccn2c(=O)c3ccccc3nc12 | inconclusive: 4.6 nM
40 | CN(C)c1ccc(-c2nc(N(C)Cc3ccco3)c3ccccc3n2)cc1 | inconclusive: 1.2 nM
41 | CCn1cc(C(=O)O)c(=O)c2ccc(Cc3ccccc3)nc21 | inactive
42 | Cn1c(=O)[nH]c(=O)c2c1nc(N1CCCCCC1)n2CCSc1nc2ccccc2[nH]1 | inconclusive: 6 nM
43 | COC(=O)c1ccc2c(=O)n(NC(C)=O)c(=S)[nH]c2c1 | active: 48 nM
44 | COc1ccc(CCNC(=O)CN(C)S(=O)(=O)c2cccc3nsnc23)cc1OC | inconclusive: 2.9 nM
45 | COc1ccc(-c2cc(C(F)(F)F)nc(N3CCCCCC3)n2)cc1 | active: 57 nM
46 | COc1ccc(-n2nnnc2SCC(=O)Nc2cccc(C)n2)cc1OC | inactive
47 | O=C1CSC(c2cccc(F)c2)N1c1ccccc1F (stereo not given) | inconclusive: 4.7 nM
48 | c1ccc(C2COC(c3cccs3)=N2)cc1 (stereo not given) | inconclusive: 1.3 nM

Part of the list above, tab-delimited.
Row	Structure (SMILES)	max dye-equivalent concentration
34	Cc1noc(C)c1C(=O)N1CCC2(CCCN(C(=O)Nc3cccc(C#N)c3)C2)CC1	inactive
38	N#Cc1nc(-c2ccccc2)oc1NCCN1CCCCC1	inconclusive: 7.1 nM
39	O=C(NCCN1CCN(c2ccccc2F)CC1)c1cccn2c(=O)c3ccccc3nc12	inconclusive: 4.6 nM
40	CN(C)c1ccc(-c2nc(N(C)Cc3ccco3)c3ccccc3n2)cc1	inconclusive: 1.2 nM

Next results.

Row | Structure (SMILES) | max dye-equivalent concentration
49 | CCC(Oc1ccccc1)C(=O)N1CC(C)CC(C)C1 (stereo not given) | inactive
50 | CC1Cc2ccccc2N1C(=O)CSC1=NCCS1 (stereo not given) | inconclusive: 1.3 nM
51 | Cc1ccc(CCNC(=O)C2CCCN(c3nc4ccccc4o3)C2)cc1 (stereo not given) | inconclusive: 1.1 nM
52 | NC(=O)C1CCC(NC(=O)OCc2ccccc2)CC1 (stereo not given) | inconclusive: 1.9 nM
53 | O[C@@H](COc1cccc2ccccc12)CN1CCOCC1 | active: 14 nM
54 | O=c1[nH]c2ccc(Cl)cc2c(-c2ccccc2)c1N1CCN(c2ccccn2)CC1 | active: 12 nM
55 | Cc1cc2c(c(=O)o1)C(Cc1ccccc1)C(C#N)=C(N)O2 (stereo not given) | inconclusive: 4.6 nM
56 | COc1nc(NCCc2ccc(OC)c(OC)c2)nc(NC(C)(C)CO)n1 | inactive
57 | Cc1nn(Cc2ccc(F)cc2)c(C)c1NC(=O)c1cnn2cccnc12 | inconclusive: 1.4 nM
58 | Nc1ncnc2c1ncn2C[C@@H](O)C(=O)O | inactive
59 | C=CCn1c(SCC(=O)NCC2CCCO2)nnc1C1CCCCC1 (stereo not given) | inconclusive: 4.5 nM
60 | COC(=O)c1cc(/C=C/c2ccccc2)on1 | inconclusive: 2.3 nM
61 | Cc1cc(Nc2nc3c(c(=O)n(C)c(=O)n3C)n2C)n(-c2ccccc2)n1 | inconclusive: 1.4 nM
62 | C=CCn1c(=N)c(C(=O)OC)cc2c(=O)n3cccc(C)c3nc21 | active: 2600 nM
63 | Cn1c(=O)[nH]c(=O)c2c1nc(N1CCOCC1)n2CCCSc1ncccn1 | inconclusive: 4 nM
64 | COc1cccc(-n2nnc3c(=O)n(CC(=O)N4CCC(C)CC4)cnc32)c1 | inconclusive: 5.3 nM
65 | Cc1nc(Nc2ccc3c(c2)OCCO3)c2oc3ccccc3c2n1 | inconclusive: 6.6 nM
66 | CCOC(=O)N1CCN(S(=O)(=O)c2cc(Br)cnc2N)CC1 | inconclusive: 9.4 nM
67 | Cc1ccc2oc(-c3ccc(NC(=O)c4cccnc4)cc3)nc2c1 | inconclusive: 3.3 nM
68 | O=C1c2cccc3c(Cl)ccc(c23)C(=O)N1O | inactive
69 | COc1ccc(-c2nc3cncnc3n(-c3ccccc3)c2=O)cc1 | inconclusive: 1.6 nM
70 | COc1ncc2ncc(=O)n(C[C@H]3CCCO3)c2n1 | inactive
71 | NNc1nncc2ccccc12 | inconclusive: 6.7 nM
72 | Cc1occc1-c1nnc(SCc2cc(=O)n3cc(Br)ccc3n2)n1C | active: 17 nM

Row | Structure (SMILES) | max dye-equivalent concentration
73 | CCC(c1nnnn1CCc1ccccc1)N(Cc1ccco1)Cc1cc2cc(C)cc(C)c2[nH]c1=O (stereo not given) | inconclusive: 4.2 nM
74 | CN(C)CCOC(=O)c1ccc(N)cc1 | inactive
75 | CC(=O)Nc1ccc(N/C=C/C(=O)c2ccc(C)o2)cc1 | inconclusive: 1.6 nM
76 | COc1ccc(CNc2ccnc(-c3ccc(N(C)C)cc3)n2)c(OC)c1 | inconclusive: 1.1 nM
77 | CC(Sc1cccc2cccc(C(=O)O)c12)C(=O)O (stereo not given) | inconclusive: 2.2 nM
78 | Cc1nnc(NCc2ccncc2)c2ccccc12 | inconclusive: 6.3 nM
79 | CN1C(=O)N(C)C2(c3ccccc3)Nn3c(s/c(=C/c4ccco4)c3=O)=NC12c1ccccc1 (stereo not given) | inconclusive: 5.6 nM
80 | CS(=O)(=O)N(CC(=O)N1CCOCC1)Cc1ccc(Cl)cc1 | inconclusive: 7 nM
81 | Cc1cc2oc(=O)c3c(c2cc1OC(=O)c1ccco1)CCCC3 | inconclusive: 2.4 nM
82 | O=C(CSCCO)Nc1cc(C(F)(F)F)ccc1Cl | inconclusive: 8 nM
83 | O=C1CSC(c2ccccc2F)N1c1cc(Cl)ccc1O (stereo not given) | inconclusive: 1.1 nM
84 | CC1(C)CC(=O)C2=C(C1)Nc1ncnn1C2c1ccccn1 (stereo not given) | active: 22 nM
85 | Cc1noc(C)c1C(=O)OCC(=O)/C=C1\N(C)c2ccccc2C1(C)C | active: 210 nM
86 | N=c1c[n+](N2CCOCC2)[n-]o1 | inactive
87 | CCc1ccccc1NC(=O)CSC1=C(C#N)C(c2ccc(O)c(OC)c2)C2=C(CCCC2=O)N1 (stereo not given) | inconclusive: 4 nM
88 | COc1ccccc1NC(=O)COc1ccc(CO)cc1Cl | inactive
89 | CCc1nc(N)c(C#N)c(-c2ccc(O)c(OC)c2)c1C | inactive
90 | COc1cc([C@H]2c3cc4c(cc3[C@@H](O)[C@@H]3COC(=O)[C@H]23)OCO4)cc(OC)c1OC | inconclusive: 2.5 nM
91 | COc1ccccc1N1CCN(C(=O)c2ccc(Br)s2)CC1 | inactive
92 | O=C(CSc1nnc(C2CCCCC2)n1-c1ccccc1)NCc1ccco1 | inactive
93 | CC(=O)N(Cc1cc(=O)[nH]c2ccccc12)c1cccc(C)c1 | inactive
94 | Cc1cccn2c(=O)c3cc(C(=O)N4CCN(C(=O)c5ccco5)CC4)n(C)c3nc12 | active: 900 nM
95 | CCOC(=O)c1c(N)sc(C(=O)Nc2ccc3c(c2)OCO3)c1C | inactive
